Target: Human KLK1 (Homo sapiens (Human), UniProt P06870)
Assay: Determination of the IC50 for KLK1
Type: biochemical
Settings: 25° C., fluorogenic substrate H-DVal-Leu-Arg-AFC
Method: Determination of the IC50 for KLK1
Human KLK1 (Callbiochem) was incubated at 25° C. with the fluorogenic substrate H-DVal-Leu-Arg-AFC and various concentrations of the test compound. Residual enzyme activity (initial rate of reaction) was determined by measuring the change in […] at 410 nm and the IC50 value for the test compound was determined.

Protein sequences, listed by entry. Tags and fused reporters are not part of them. Residues count along the entry.
UniProt P06870, 25-262: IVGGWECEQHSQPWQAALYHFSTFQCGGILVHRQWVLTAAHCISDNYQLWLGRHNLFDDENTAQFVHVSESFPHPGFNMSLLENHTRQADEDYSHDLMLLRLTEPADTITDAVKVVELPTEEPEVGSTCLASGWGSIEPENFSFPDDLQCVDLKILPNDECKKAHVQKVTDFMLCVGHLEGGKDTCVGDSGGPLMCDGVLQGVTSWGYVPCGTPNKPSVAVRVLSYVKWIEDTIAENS

## COCc1nn(Cc2ccc(Cn3ccccc3=O)cc2)cc1C(=O)NCc1c(F)ccc(OC)c1C(F)F [Example 83, N-{[2-(difluoromethyl)-6-fluoro-3-methoxyphenyl]methyl}-3-(methoxymethyl)-1-({4-[(2-oxopyridin-1-yl)methyl]phenyl}methyl)pyrazole-4-carboxamide]
  IC50: > 40 µM
